Laboratory results taken from PubChem BioAssay AID504467 (National Center for Advancing Translational Sciences (NCATS), 2011).
Out of some 330,000 compounds screened, about 7,700 (2.3%) were called active. The shares of active, inactive and inconclusive entries below differ from those in the screen. Calls come from the whole dose curve; as a rule, active = well fitted inhibition curve with a large enough effect; inconclusive = small, poorly fitted or top-dose-only effect, or effect the other way; inactive = flat fitted curve, though single readings scatter. Potencies beside an inconclusive call are fits to weak or partial responses and may not hold up.

Assay: qHTS screen for small molecules that inhibit ELG1-dependent DNA repair in human embryonic kidney (HEK293T) cells expressing luciferase-tagged ELG1; note: nearly all actives have a fitted effect of over 55% in size
Settings: HEK293T ELG1-luciferase reporter, luminescence, 16 h, DNA damage induced by 5-fluorouridine; activity change, negative = inhibition: at 46.1 µM (top of the series)
How it was run: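 5-Fluorouridine DNA damage + compound/DMSO, 2,000 cells/well, 16 h, 37 °C/5% CO2. ONE-Glo, 30 min RT, luminescence. Readout = decrease in reporter signal.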
% is set by controls: 0 for no effect and ±100 for the full control effect; potency is the fitted concentration of half-maximal effect.

SMILES	Potency	activity change, negative = inhibition
CSc1nc(NC(C)=O)nc(C)c1Br	inconclusive: 29.1 µM [activator, single point]	–
O=C(/C=C/c1ccc(F)cc1)NC(=S)N1CCN(c2ccccn2)CC1	–	inactive: 17.7%
Cc1ccccc1C(=O)NNC(=S)Nc1cccc(C(F)(F)F)c1	inconclusive: 29.1 µM [inhibitor, single point]	–
CCCc1cc(=O)[nH]c(SCC(=O)N(C)C2CCCCC2)n1	–	inactive: 10.4%
CC12c3ccccc3C(c3ccccc31)C1C(=O)N(Cc3cccnc3)C(=O)C12 (configuration not stated)	inconclusive: 4.11 µM [inhibitor, single point]	–
COc1ccc(-c2nnc(-c3ccc(N)cc3)o2)cc1	inconclusive: 6.51 µM [activator, partial curve]	–
COc1ccc(CN(C)C(=O)c2ccc(COc3ccccc3)cc2)c(OC)c1	inconclusive: 25.9 µM [inhibitor, single point]	–
CC(C)CCNC(=O)C1CCN(Cc2cccc(OCc3ccccc3)c2)CC1	inconclusive: 18.3 µM [inhibitor, single point]	–
Cc1ccc(C2=NN(C(=O)CSc3nc(N)cc(N)n3)C(c3ccco3)C2)cc1 (configuration not stated)	inconclusive: 13 µM [inhibitor, partial curve, poor fit]	–
CCC(Sc1nc2n[nH]c(C)c2c(=N)n1-c1ccc(C)c(Cl)c1)C(=O)N1CCOCC1 (configuration not stated)	inconclusive: 10.3 µM [inhibitor, partial curve, poor fit]	–
C[n+]1cnc(-c2ccccc2)cc1-c1ccccc1	–	inactive: -16%
CCc1nnc(N/N=C/c2ccc(N3CCC(C)CC3)c([N+](=O)[O-])c2)n1N	–	inactive: -0.589%
CC1(C)CC(=O)c2c(O)cc(OCC(=O)Nc3ccc(S(N)(=O)=O)cc3)cc2O1	inconclusive: 4.61 µM [inhibitor, partial curve, poor fit]	–
CC(=O)NC1(C(=O)O)CCCC1	–	inactive: 6.68%
CCOC(=O)c1cn2nc(Oc3ccc(C)cc3)ccc2n1	inconclusive: 14.6 µM [activator, partial curve]	–
Nc1ncnc2c1ncn2[C@@H]1O[C@H](CNC(=O)[C@@H]2CCC(=O)N2)[C@@H](O)[C@H]1O	–	inactive: 17.9%
COC(=O)CN1C(=O)[C@H]2[C@@H](c3ccc(C)o3)N3C(=O)CN(Cc4ccccc4)C(=O)[C@@]3(C)[C@H]2C1=O	–	inactive: 14%
COc1cccc2[nH]c(C(=O)NCC3CCCO3)cc12 (configuration not stated)	inconclusive: 25.9 µM [activator, single point]	–
COc1ccc(C(=O)N/N=C/c2ccc(OC)c(CN3CCN(c4ccc(F)cc4)CC3)c2)cc1	active: 20.6 µM	–
O=C(Nc1ccc(F)cc1)Nc1ccccc1F	inconclusive: 8.2 µM [activator, partial curve]	–
COc1ccc2c(c1)nc(SCC(C)O)n2C (configuration not stated)	inconclusive: 20.6 µM [activator, single point]	–
CCCC(=O)NC(c1ccc(Cl)cc1Cl)c1ccc2cccnc2c1O (configuration not stated)	inconclusive: 5.17 µM [inhibitor, partial curve, poor fit]	–
COc1ccc(NC(=O)CN2CCN(c3ccccc3)CC2)cc1	–	inactive: 5.34%
Cc1cc(NC(=O)CSc2nc3ccccc3c(=O)n2C2CCCC2)no1	–	inactive: 7.3%

SMILES	Potency	activity change, negative = inhibition
O=C(Cc1ccccc1)Nc1cccc(C(=O)O)c1O	–	inactive: 17.6%
COc1ccc(S(=O)(=O)Nc2ccc3c(c2)C(=O)N([C@H](C)CO)C[C@H](C)[C@@H](CN(C)C(=O)Nc2ccc(C(F)(F)F)cc2)O3)cc1	–	inactive: -9.16%
COc1ccc(N2C(=O)/C(=C\c3ccco3)N=C2SCC(=O)N(C(C)C)C(C)C)cc1Cl	active: 13 µM	–
O=C(CCN1C(=O)/C(=C/c2ccccc2)SC1=S)NNC(=O)c1ccncc1	–	inactive: 7.52%
COc1ccc(C(=O)NCCONC(=O)c2ccc(OC)cc2)cc1	–	inactive: 9.35%
CCOc1ccccc1NC(=O)c1cc(S(=O)(=O)NCc2ccco2)ccc1F	inconclusive: 16.4 µM [inhibitor, single point]	–
CCc1ccc(-c2nc(CCl)cs2)cc1	inconclusive: 16.4 µM [activator, partial curve]	–
CCOC(=O)CNC(=O)COc1coc(CN2CCN(c3ccc(F)cc3)CC2)cc1=O	–	inactive: -0.301%
CCc1ccc(Oc2cc(C)nc(N)n2)cc1	inconclusive: 8.2 µM [activator, partial curve]	–
Cc1ccsc1/C=C(\C(=O)c1ccc(OC(C)C)cc1)c1nc2ccccc2o1	inconclusive: 25.9 µM [activator, partial curve, poor fit]	–
Cc1cc(C)c(C#N)c(SCc2nnc(-c3ccccc3)o2)n1	inconclusive: 0.184 µM [activator, full curve]	–
CCCCn1c(N)c(N(Cc2ccccc2OC)C(=O)CCC(C)C)c(=O)[nH]c1=O	–	inactive: 24.4%
CCn1c(SCC(=O)Nc2ccccc2)nc2c1c(=O)n(C)c(=O)n2C	–	inactive: -12%
O=C1C2CCCCC2C(=O)N1c1cccc(OS(=O)(=O)c2ccccc2)c1 (configuration not stated)	–	inactive: 0.792%
COc1ccc(NC(=O)C/C(C)=N/NC(=O)c2cccs2)c([N+](=O)[O-])c1	inconclusive: 20.6 µM [activator, single point]	–
CCN(CC)c1ccc(/C=N/NC(=O)c2ccc(Br)o2)cc1	inconclusive: 2.06 µM [activator, full curve]	–
O=C(CN(CCc1ccccc1)C(=O)c1csnn1)NCc1ccc(F)cc1	–	inactive: -5.02%
Cc1ccc(NC(=O)c2ccc(CSc3nccc(C)n3)cc2)cc1	inconclusive: 20.6 µM [inhibitor, single point]	–
CCn1c(SCC(=O)Nc2nc(C)c(C)s2)nnc1-c1cccs1	inconclusive: 29.1 µM [inhibitor, single point]	–
O=C(CC1SC(N2CCCC2)=NC1=O)Nc1ccc(C(=O)N2CCN(c3cccc(Cl)c3)CC2)cc1 (configuration not stated)	inconclusive: 10.3 µM [inhibitor, partial curve, poor fit]	–
CCOC(=O)N1C(=O)[C@@](c2ccc(Cl)cc2)(C(C)C)N1C(=O)OCC	inconclusive: 29.1 µM [inhibitor, single point]	–
COc1cc(C=O)c(Br)cc1OCC(=O)NCCc1ccccc1	inconclusive: 10.3 µM [inhibitor, partial curve, poor fit]	–
O=C(N/N=C1\CCc2ccccc21)c1ccccc1Cl	inconclusive: 9.2 µM [activator, partial curve]	–
Cc1ccc(CNC(=O)[C@H](C)N2C(=O)N3CCc4c([nH]c5ccccc45)[C@@]3(C)C2=O)cc1	inconclusive: 1.16 µM [activator, partial curve, poor fit]	–

In another format: results already given.

| SMILES | Potency | activity change, negative = inhibition |
| --- | --- | --- |
| CCOC(=O)c1cn2nc(Oc3ccc(C)cc3)ccc2n1 | inconclusive: 14.6 µM [activator, partial curve] | – |
| O=C(Nc1ccc(F)cc1)Nc1ccccc1F | inconclusive: 8.2 µM [activator, partial curve] | – |
| COc1ccc2c(c1)nc(SCC(C)O)n2C (configuration not stated) | inconclusive: 20.6 µM [activator, single point] | – |

Additional compounds.

SMILES	Potency	activity change, negative = inhibition
C[C@@H](C(=O)NCc1ccccn1)[C@@H]1C[C@@]1(C)[C@@H](NC(=O)OCc1ccccc1)c1ccccc1	–	inactive: 6.49%
COc1ccccc1OCCC(=O)Nc1nc(C)cs1	–	inactive: 7.18%
Cc1cnc(NC(=O)c2sc3ccccc3c2Cl)s1	inconclusive: 0.58 µM [activator, full curve]	–
CCN1C(=O)/C(=c2\s/c(=C3\Sc4ccccc4N3C)c(=O)n2C)N(C)C1=S	inconclusive: 29.1 µM [activator, partial curve, poor fit]	–
O=C(Nc1cccnc1Cl)c1cc(-c2ccco2)on1	inconclusive: 18.4 µM [activator, partial curve]	–
O=C(CCCn1c(=O)oc2ccccc21)Nc1ccccc1	inconclusive: 23.1 µM [activator, single point]	–
O=C(CC(c1ccccc1O)N1CCCCC1)N1CCCCC1 (configuration not stated)	inconclusive: 20.6 µM [activator, single point]	–
O=c1[nH]c(/C=C/c2cccc([N+](=O)[O-])c2)c([N+](=O)[O-])c(=O)[nH]1	–	inactive: 7.96%
CCn1c(-c2sc(-c3ccccc3)nc2C)n[nH]c1=S	–	inactive: 13.6%
O=C(CCCn1c(SCC(=O)c2ccc(Cl)cc2)nc2ccccc2c1=O)NCc1ccco1	–	inactive: 18.3%
c1ccc(N(c2ccccc2)c2nc(N3CCCC3)nc(-n3ccnc3)n2)cc1	inconclusive: 29.1 µM [inhibitor, single point]	–
Cc1cc(Cl)ccc1OCC(=O)Nc1ccccc1CO	inconclusive: 7.31 µM [activator, partial curve, poor fit]	–
Cc1ccc(C)c(C(=O)CCC(=O)NNC(=O)Cn2nc(C)cc2C)c1	–	inactive: 3.39%
Cc1ccc(S(=O)(=O)NCc2ccccc2)cc1C(=O)NCc1ccccn1	–	inactive: 4.38%
Clc1ccccc1CSc1ncn(-c2ccccc2)n1	inconclusive: 13 µM [activator, partial curve]	–
CC(C)(C)NC(=S)NCc1ccncc1	–	inactive: 3.75%
O=C(Nc1ccccc1Oc1ccccc1)C1CCCC1	–	inactive: -3.67%
O=C(C1CCN(S(=O)(=O)N2CCC3(CC2)OCCO3)CC1)N1CCc2ccccc2C1	inconclusive: 20.6 µM [inhibitor, single point]	–
CC1c2ccsc2CCN1S(=O)(=O)c1ccccc1 (configuration not stated)	inconclusive: 20.6 µM [inhibitor, single point]	–
COC(=O)Nc1nnc(-c2ccccc2OC)s1	inconclusive: 16.4 µM [activator, partial curve]	–
Cc1ccc(NC(=O)CN(C)C(=O)c2ccc3[nH]c4c(c3c2)CC(C)CC4)cc1 (configuration not stated)	–	inactive: -1.13%
O=Cc1ccc(OCc2ccc3c(c2)OCO3)cc1	inconclusive: 16.4 µM [activator, partial curve]	–
CCOC(=O)C1=C(COC(=O)c2ccccc2OC)NC(=O)NC1C (configuration not stated)	inconclusive: 8.2 µM [inhibitor, partial curve, poor fit]	–
C[C@@H](C(=O)NCc1ccc(S(C)(=O)=O)cc1)[C@H]1C[C@]1(C)[C@H](NC(=O)OCc1ccccc1)c1ccccc1	inconclusive: 16.4 µM [inhibitor, single point]	–
